Test results reported in ChEMBL document CHEMBL4316593 (Eur J Med Chem, 2019).
The source gives many values for each of these; only a part stands here.

Assays:
Assay type in all cases: cell-based
Settings in all cases: U-87MG ATCC
[1] = Inhibition of RTK/PI3K/AKT/mTOR signaling in human U87 cells assessed as down regulation of ENPP1 gene expression at cytotoxic IC50 measured after 48 hrs relative to control
[2] = Inhibition of RTK/PI3K/AKT/mTOR signaling in human U87 cells assessed as down regulation of GPATCH2L gene expression at cytotoxic IC50 measured after 48 hrs relative to control
[3] = Inhibition of RTK/PI3K/AKT/mTOR signaling in human U87 cells assessed as down regulation of DNAJA4 gene expression at cytotoxic IC50 measured after 48 hrs relative to control
[4] = Inhibition of RTK/PI3K/AKT/mTOR signaling in human U87 cells assessed as up regulation of adhesion G protein-coupled receptor A3 gene expression at cytotoxic IC50 measured after 48 hrs relative to control
[5] = Inhibition of RTK/PI3K/AKT/mTOR signaling in human U87 cells assessed as up regulation of RAB6A, member RAS oncogene family gene expression at cytotoxic IC50 measured after 48 hrs relative to control
[6] = Inhibition of RTK/PI3K/AKT/mTOR signaling in human U87 cells assessed as down regulation of CMAS gene expression at cytotoxic IC50 measured after 48 hrs relative to control
[7] = Inhibition of RTK/PI3K/AKT/mTOR signaling in human U87 cells assessed as down regulation of ISOC1 gene expression at cytotoxic IC50 measured after 48 hrs relative to control
[8] = Inhibition of RTK/PI3K/AKT/mTOR signaling in human U87 cells assessed as up regulation of pleckstrin and Sec7 domain containing 3 gene expression at cytotoxic IC50 measured after 48 hrs relative to control
[9] = Inhibition of RTK/PI3K/AKT/mTOR signaling in human U87 cells assessed as up regulation of signal sequence receptor subunit 3 gene expression at cytotoxic IC50 measured after 48 hrs relative to control
[10] = Inhibition of RTK/PI3K/AKT/mTOR signaling in human U87 cells assessed as down regulation of CMTM6 gene expression at cytotoxic IC50 measured after 48 hrs relative to control
[11] = Inhibition of RTK/PI3K/AKT/mTOR signaling in human U87 cells assessed as up regulation of myosin XVB gene expression at cytotoxic IC50 measured after 48 hrs relative to control
[12] = Inhibition of RTK/PI3K/AKT/mTOR signaling in human U87 cells assessed as down regulation of CYP1B1 gene expression at cytotoxic IC50 measured after 48 hrs relative to control
[13] = Inhibition of RTK/PI3K/AKT/mTOR signaling in human U87 cells assessed as up regulation of RNF165 gene expression at cytotoxic IC50 measured after 48 hrs relative to control
[14] = Inhibition of RTK/PI3K/AKT/mTOR signaling in human U87 cells assessed as down regulation of PLA2G15 gene expression at cytotoxic IC50 measured after 48 hrs relative to control
[15] = Inhibition of RTK/PI3K/AKT/mTOR signaling in human U87 cells assessed as up regulation of chromosome 4 open reading frame 32 gene expression at cytotoxic IC50 measured after 48 hrs relative to control
[16] = Inhibition of RTK/PI3K/AKT/mTOR signaling in human U87 cells assessed as up regulation of PMS1 homolog 1, mismatch repair system component gene expression at cytotoxic IC50 measured after 48 hrs relative to control
[17] = Inhibition of RTK/PI3K/AKT/mTOR signaling in human U87 cells assessed as down regulation of MCM7 gene expression at cytotoxic IC50 measured after 48 hrs relative to control
[18] = Inhibition of RTK/PI3K/AKT/mTOR signaling in human U87 cells assessed as down regulation of RNASEH2C gene expression at cytotoxic IC50 measured after 48 hrs relative to control
[19] = Inhibition of RTK/PI3K/AKT/mTOR signaling in human U87 cells assessed as down regulation of GTF2B gene expression at cytotoxic IC50 measured after 48 hrs relative to control
[20] = Inhibition of RTK/PI3K/AKT/mTOR signaling in human U87 cells assessed as up regulation of ELFN2 gene expression at cytotoxic IC50 measured after 48 hrs relative to control
[21] = Inhibition of RTK/PI3K/AKT/mTOR signaling in human U87 cells assessed as down regulation of ZNF766 gene expression at cytotoxic IC50 measured after 48 hrs relative to control
[22] = Inhibition of RTK/PI3K/AKT/mTOR signaling in human U87 cells assessed as down regulation of PLEKHM2 gene expression at cytotoxic IC50 measured after 48 hrs relative to control
[23] = Inhibition of RTK/PI3K/AKT/mTOR signaling in human U87 cells assessed as up regulation of SERPINF2 gene expression at cytotoxic IC50 measured after 48 hrs relative to control
[24] = Inhibition of RTK/PI3K/AKT/mTOR signaling in human U87 cells assessed as down regulation of KRTAP2-3 gene expression at cytotoxic IC50 measured after 48 hrs relative to control
[25] = Inhibition of RTK/PI3K/AKT/mTOR signaling in human U87 cells assessed as up regulation of RNA polymerase III subunit H gene expression at cytotoxic IC50 measured after 48 hrs relative to control
[26] = Inhibition of RTK/PI3K/AKT/mTOR signaling in human U87 cells assessed as down regulation of RIOK3 gene expression at cytotoxic IC50 measured after 48 hrs relative to control
[27] = Inhibition of RTK/PI3K/AKT/mTOR signaling in human U87 cells assessed as down regulation of CLK1 gene expression at cytotoxic IC50 measured after 48 hrs relative to control
[28] = Inhibition of RTK/PI3K/AKT/mTOR signaling in human U87 cells assessed as down regulation of PRPF38A gene expression at cytotoxic IC50 measured after 48 hrs relative to control
[29] = Inhibition of RTK/PI3K/AKT/mTOR signaling in human U87 cells assessed as up regulation of TSPAN14 gene expression at cytotoxic IC50 measured after 48 hrs relative to control
[30] = Inhibition of RTK/PI3K/AKT/mTOR signaling in human U87 cells assessed as up regulation of Kruppel like factor 3 gene expression at cytotoxic IC50 measured after 48 hrs relative to control
[31] = Inhibition of RTK/PI3K/AKT/mTOR signaling in human U87 cells assessed as up regulation of ALPK2 gene expression at cytotoxic IC50 measured after 48 hrs relative to control
[32] = Inhibition of RTK/PI3K/AKT/mTOR signaling in human U87 cells assessed as down regulation of BPGM gene expression at cytotoxic IC50 measured after 48 hrs relative to control

CC(=O)C(=NNc1ccccc1C#N)C(C)=O
log2FC [1]: -1.58 | log2FC [2]: -0.718 | log2FC [3]: -1.71 | log2FC [4]: 1.16 | log2FC [5]: 0.688 | log2FC [6]: -0.55 | log2FC [7]: -1.14 | log2FC [8]: 0.865 | log2FC [9]: 0.704 | log2FC [10]: -0.585 | log2FC [11]: 1.39 | log2FC [12]: -3.42 | log2FC [13]: 2.23 | log2FC [14]: -1.58 | log2FC [15]: 0.746 | log2FC [16]: 0.835 | log2FC [17]: -0.524 | log2FC [18]: -1.43 | log2FC [19]: -0.612 | log2FC [20]: 1.82 | log2FC [21]: -0.923 | log2FC [22]: -0.675 | log2FC [23]: 2.22 | log2FC [24]: -1.34 | log2FC [25]: 1.09 | log2FC [26]: -0.602 | log2FC [27]: -1.08 | log2FC [28]: -0.734 | log2FC [29]: 0.519 | log2FC [30]: 0.985 | log2FC [31]: 2.42 | log2FC [32]: -1.87
